# Assay results reported in the supplement of paper PMC10849652.
# Chains of the proteins cited; added tags and fusions are not shown. Lines headed by an entry give the natural chain unless they say otherwise; changes in a name come on top.
# UniProt Q9H082: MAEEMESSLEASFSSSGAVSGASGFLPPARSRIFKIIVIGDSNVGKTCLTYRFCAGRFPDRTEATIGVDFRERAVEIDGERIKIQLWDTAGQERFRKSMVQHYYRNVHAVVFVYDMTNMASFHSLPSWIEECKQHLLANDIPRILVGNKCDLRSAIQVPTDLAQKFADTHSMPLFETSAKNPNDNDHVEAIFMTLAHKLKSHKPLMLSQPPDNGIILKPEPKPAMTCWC
# UniProt Q96EV2: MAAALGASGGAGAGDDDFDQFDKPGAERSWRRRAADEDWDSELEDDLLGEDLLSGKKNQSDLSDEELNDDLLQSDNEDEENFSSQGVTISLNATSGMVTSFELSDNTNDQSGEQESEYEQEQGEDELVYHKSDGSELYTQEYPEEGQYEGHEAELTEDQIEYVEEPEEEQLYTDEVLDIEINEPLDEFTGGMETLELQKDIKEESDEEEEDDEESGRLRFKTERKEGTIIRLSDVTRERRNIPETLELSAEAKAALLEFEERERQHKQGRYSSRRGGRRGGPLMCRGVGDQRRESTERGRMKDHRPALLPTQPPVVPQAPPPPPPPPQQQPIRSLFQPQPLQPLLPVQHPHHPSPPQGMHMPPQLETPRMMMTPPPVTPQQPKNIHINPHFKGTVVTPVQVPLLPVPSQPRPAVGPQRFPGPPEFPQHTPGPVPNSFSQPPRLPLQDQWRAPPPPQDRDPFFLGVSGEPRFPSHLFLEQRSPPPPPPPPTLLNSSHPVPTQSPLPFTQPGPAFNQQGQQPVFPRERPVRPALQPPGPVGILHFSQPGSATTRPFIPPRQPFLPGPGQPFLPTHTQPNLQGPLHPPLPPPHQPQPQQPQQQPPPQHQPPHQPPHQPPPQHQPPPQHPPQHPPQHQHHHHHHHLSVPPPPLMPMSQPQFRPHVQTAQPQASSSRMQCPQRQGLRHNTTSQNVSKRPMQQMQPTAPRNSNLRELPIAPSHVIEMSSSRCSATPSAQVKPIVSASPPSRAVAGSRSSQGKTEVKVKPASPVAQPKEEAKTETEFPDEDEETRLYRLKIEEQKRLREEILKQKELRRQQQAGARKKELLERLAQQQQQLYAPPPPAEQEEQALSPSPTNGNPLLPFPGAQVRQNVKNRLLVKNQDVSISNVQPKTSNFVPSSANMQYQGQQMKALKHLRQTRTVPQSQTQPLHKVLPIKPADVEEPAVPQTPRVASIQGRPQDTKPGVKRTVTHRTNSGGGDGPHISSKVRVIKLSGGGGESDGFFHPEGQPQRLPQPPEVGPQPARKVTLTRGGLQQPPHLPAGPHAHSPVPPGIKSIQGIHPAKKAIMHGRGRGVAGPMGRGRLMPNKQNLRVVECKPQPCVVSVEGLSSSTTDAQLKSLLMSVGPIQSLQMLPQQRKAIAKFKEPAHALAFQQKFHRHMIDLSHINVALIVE
# UniProt P54136: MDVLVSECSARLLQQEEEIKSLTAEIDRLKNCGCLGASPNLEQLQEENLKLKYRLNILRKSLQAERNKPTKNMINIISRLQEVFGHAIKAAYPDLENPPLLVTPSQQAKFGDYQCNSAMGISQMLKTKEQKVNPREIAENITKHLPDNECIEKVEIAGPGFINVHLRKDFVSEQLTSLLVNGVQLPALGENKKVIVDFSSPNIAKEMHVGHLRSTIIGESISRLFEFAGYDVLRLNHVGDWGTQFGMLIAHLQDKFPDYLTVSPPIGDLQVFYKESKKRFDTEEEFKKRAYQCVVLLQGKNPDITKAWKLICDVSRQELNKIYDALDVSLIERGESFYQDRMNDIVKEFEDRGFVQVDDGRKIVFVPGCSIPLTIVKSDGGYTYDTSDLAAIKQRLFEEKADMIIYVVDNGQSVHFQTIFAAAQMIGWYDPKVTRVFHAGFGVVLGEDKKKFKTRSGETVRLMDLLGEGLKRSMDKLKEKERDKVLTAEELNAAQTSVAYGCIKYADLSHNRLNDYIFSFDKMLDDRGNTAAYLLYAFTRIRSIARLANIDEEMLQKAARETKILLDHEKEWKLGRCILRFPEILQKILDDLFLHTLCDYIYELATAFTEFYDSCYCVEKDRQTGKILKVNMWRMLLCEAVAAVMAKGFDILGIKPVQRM
# UniProt Q16576, whole entry, looked up: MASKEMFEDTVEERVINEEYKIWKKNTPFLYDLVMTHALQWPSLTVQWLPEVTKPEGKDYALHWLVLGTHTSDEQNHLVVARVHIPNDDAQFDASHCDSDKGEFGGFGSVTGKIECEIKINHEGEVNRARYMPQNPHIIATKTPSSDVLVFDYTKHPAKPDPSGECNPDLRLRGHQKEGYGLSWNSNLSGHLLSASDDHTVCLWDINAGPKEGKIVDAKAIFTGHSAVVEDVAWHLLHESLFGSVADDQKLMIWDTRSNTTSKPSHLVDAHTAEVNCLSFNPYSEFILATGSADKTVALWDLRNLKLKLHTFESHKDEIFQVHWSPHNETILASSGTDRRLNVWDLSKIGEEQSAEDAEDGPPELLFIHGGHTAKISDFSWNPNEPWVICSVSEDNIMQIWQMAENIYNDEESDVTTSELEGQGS
# UniProt P51151: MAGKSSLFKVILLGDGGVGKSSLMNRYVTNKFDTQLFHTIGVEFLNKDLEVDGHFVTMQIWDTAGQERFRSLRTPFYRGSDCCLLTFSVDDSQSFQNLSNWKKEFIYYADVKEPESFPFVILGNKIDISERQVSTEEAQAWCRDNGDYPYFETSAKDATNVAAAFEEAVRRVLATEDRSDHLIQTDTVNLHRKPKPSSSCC
# UniProt P52306: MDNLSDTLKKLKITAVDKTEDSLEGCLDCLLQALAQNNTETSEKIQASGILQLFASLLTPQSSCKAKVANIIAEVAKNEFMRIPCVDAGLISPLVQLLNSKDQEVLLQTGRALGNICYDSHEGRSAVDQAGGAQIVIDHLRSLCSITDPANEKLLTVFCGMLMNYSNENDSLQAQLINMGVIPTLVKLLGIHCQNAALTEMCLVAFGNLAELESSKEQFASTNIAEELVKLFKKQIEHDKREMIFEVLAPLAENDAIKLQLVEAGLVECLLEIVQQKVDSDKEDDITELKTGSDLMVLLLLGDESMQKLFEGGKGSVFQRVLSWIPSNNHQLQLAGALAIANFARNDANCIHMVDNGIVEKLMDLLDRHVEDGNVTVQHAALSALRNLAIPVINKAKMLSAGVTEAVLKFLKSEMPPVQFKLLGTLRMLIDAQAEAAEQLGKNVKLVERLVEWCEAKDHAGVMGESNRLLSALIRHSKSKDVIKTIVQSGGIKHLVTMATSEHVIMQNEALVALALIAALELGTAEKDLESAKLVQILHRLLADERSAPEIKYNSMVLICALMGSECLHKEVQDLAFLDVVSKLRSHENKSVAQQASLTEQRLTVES
# UniProt Q8TBN0: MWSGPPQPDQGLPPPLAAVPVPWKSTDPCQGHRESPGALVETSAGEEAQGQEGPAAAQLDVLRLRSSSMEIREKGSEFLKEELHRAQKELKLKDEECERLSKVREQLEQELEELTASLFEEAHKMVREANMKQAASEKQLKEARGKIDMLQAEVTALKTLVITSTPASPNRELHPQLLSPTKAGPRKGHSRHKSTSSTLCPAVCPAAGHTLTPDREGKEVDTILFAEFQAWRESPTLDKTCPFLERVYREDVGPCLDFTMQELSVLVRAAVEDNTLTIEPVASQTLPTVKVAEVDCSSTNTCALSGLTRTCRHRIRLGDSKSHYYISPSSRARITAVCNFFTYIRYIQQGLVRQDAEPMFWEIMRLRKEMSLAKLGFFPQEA
# UniProt Q5T160: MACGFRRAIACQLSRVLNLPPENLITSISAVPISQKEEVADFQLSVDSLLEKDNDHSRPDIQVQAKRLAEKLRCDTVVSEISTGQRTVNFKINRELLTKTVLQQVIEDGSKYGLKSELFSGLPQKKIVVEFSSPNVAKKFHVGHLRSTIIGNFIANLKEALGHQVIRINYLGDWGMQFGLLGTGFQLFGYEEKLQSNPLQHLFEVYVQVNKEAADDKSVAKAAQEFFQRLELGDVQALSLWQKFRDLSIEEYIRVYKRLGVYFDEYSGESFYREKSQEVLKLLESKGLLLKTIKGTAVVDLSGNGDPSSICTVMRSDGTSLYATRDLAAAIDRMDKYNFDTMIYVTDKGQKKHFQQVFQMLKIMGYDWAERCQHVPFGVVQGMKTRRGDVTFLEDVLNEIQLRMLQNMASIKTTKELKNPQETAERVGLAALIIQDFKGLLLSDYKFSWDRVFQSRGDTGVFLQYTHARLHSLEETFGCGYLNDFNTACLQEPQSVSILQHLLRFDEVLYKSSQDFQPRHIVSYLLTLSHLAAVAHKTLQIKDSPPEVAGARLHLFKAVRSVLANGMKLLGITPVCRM
# UniProt Q9UI14, whole entry, looked up: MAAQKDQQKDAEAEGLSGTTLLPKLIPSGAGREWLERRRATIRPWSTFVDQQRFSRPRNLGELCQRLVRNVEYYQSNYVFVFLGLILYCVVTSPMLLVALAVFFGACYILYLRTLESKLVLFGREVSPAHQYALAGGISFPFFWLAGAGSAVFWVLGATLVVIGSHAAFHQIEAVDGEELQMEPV
# UniProt O60518: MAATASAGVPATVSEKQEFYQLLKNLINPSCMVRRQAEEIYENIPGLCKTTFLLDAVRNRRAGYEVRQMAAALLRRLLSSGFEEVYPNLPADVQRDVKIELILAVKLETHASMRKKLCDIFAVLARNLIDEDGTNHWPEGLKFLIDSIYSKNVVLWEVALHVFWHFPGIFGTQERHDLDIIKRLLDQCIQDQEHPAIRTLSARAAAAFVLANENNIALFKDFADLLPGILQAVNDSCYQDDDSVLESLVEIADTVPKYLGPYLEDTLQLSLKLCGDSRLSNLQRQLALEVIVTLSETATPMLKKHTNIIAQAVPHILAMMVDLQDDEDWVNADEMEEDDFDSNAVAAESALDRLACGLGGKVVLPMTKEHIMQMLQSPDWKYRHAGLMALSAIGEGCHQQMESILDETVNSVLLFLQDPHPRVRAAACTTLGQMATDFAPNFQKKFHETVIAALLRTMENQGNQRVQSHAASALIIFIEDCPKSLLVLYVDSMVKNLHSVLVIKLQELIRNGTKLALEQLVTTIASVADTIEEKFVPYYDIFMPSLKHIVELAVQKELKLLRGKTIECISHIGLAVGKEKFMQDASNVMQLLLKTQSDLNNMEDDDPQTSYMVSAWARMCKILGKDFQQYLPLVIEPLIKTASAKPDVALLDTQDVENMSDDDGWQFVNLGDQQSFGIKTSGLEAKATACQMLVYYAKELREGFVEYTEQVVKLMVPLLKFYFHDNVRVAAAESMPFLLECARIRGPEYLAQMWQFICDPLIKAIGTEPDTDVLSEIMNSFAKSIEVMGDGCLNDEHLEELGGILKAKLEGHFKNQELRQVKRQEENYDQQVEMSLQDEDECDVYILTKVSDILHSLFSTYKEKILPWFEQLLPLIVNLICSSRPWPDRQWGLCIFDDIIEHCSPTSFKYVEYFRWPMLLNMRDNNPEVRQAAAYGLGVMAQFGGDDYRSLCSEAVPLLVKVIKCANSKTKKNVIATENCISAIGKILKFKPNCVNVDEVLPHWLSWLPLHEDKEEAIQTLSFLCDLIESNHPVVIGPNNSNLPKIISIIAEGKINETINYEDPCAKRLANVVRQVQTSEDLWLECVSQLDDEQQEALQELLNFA
# UniProt Q9NTZ6: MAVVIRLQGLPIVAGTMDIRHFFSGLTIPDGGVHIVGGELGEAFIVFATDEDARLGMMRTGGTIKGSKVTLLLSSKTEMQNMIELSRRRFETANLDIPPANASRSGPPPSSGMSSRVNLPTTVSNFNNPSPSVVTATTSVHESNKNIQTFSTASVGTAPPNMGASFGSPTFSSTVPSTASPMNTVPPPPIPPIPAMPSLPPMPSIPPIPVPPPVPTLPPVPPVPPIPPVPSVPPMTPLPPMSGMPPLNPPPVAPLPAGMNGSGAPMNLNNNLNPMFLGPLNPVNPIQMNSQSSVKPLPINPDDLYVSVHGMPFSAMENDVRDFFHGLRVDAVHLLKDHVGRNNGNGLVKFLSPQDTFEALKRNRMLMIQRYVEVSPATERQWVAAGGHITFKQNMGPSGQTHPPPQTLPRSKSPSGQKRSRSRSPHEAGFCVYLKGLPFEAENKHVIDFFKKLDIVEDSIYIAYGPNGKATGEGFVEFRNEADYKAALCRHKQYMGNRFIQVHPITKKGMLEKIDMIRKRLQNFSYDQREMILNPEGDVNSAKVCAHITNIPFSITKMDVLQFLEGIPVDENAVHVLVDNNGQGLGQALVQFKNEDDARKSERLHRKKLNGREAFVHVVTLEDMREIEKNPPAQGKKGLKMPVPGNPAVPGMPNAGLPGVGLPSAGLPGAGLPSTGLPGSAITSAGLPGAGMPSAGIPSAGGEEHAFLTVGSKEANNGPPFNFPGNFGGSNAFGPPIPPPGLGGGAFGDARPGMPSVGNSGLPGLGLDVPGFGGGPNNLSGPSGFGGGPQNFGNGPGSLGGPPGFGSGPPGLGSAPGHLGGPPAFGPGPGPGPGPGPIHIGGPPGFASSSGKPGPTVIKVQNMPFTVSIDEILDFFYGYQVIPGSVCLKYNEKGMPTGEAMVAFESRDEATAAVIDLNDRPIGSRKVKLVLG
# The other results are listed elsewhere or left out.
# What was measured:
# Test in all cases: log2 fold change, soluble protein after heating vs DMSO (PISA); higher = thermal stabilisation; K562 cells, 10 uM, 30 min; active = over 0.2 and 3.5 SD of the protein, either way, in both replicates (recomputed)
# [1] = compound: CS(=O)(=O)c1ccc(-c2cnc(N)c(C(=O)Nc3ccccc3)n2)cc1
# How it was run: (§1)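 K562 cells at 2×10^6 cells/mL were treated with 10 μM compound for 30 min. Aliquots were heated for 3 min across 48°C-58°C, pooled, and extracted in PBS with 0.5% NP-40 at 4°C; soluble protein was the supernatant after 21,000xg for 90 min. Soluble protein was quantified by TMTpro 16plex LC-MS/MS with channel sums equalised, and reported as log2 fold change in thermal stability against DMSO controls, with values from duplicates.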
# [2] = compound: C[C@@H](Oc1cc(-c2cnn(C3CCNCC3)c2)cnc1N)c1c(Cl)ccc(F)c1Cl [crizotinib]
# How it was run: as §1
# [3] = compound: C[C@@H]1COCCN1C2=NC(=NC(=C2)C3(CC3)S(=O)(=O)C)C4=C5C=CNC5=CC=C4
# How it was run: as §1
# [4] = compound: C[C@H](C1=CC=C(C=C1)C(=O)NC2=C3C=CNC3=NC=C2)N
# How it was run: as §1
# [5] = compound: Cc1cc(Nc2cc(CN3CCOCC3)c3nc(C)c(Cc4ccc(Cl)cc4F)n3n2)n[nH]1 [gandotinib]
# How it was run: as §1
# [6] = compound: Cc1cc(SCc2sc(-c3ccc(C(F)(F)F)cc3)nc2C)ccc1OCC(=O)O
# How it was run: as §1
# [7] = compound: Cc1ccc(-n2nc(C(C)(C)C)cc2NC(=O)Nc2ccc(OCCN3CCOCC3)c3ccccc23)cc1 [doramapimod]
# How it was run: as §1
# [8] = compound: Cc1ccc(C(=O)N(CCCN)[C@@H](c2nc3cc(Cl)ccc3c(=O)n2Cc2ccccc2)C(C)C)cc1 [ispinesib]
# How it was run: as §1
# [9] = compound: Cc1ccc(NC(=O)c2ccc(CN3CC[C@H](N(C)C)C3)c(C(F)(F)F)c2)cc1Nc1nccc(-c2cncnc2)n1 [bafetinib]
# How it was run: as §1
# [10] = compound: Cc1cccc(CC(=O)N2CCc3c2ccc(-c2cn(C)c4ncnc(N)c24)c3F)n1
# How it was run: as §1
# [11] = compound: Cc1cn(-c2cc(NC(=O)c3ccc(C)c(Nc4nccc(-c5cccnc5)n4)c3)cc(C(F)(F)F)c2)cn1 [nilotinib]
# How it was run: as §1
# [12] = compound: Cc1nc(Nc2n[nH]c3c2CN(C(=O)N[C@H](CN(C)C)c2ccccc2)C3(C)C)c2sccc2n1
# How it was run: as §1
# [13] = compound: Cc1nc(Nc2ncc(C(=O)Nc3c(C)cccc3Cl)s2)cc(N2CCN(CCO)CC2)n1 [dasatinib]
# How it was run: as §1
# [14] = compound: Cc1ncc(-c2ccnc(Nc3ccc(S(C)(=O)=O)cc3)n2)n1C(C)C
# How it was run: as §1
# [15] = compound: Cn1cc(-c2ccc3c(c2)CCN3C(=O)Cc2cccc(C(F)(F)F)c2)c2c(N)ncnc21
# How it was run: as §1
# [16] = compound: Cn1cc(-c2ccc3nnc(C(F)(F)c4ccc5ncccc5c4)n3n2)cn1
# How it was run: as §1
# [17] = compound: Cn1cncc1[C@@](N)(c1ccc(Cl)cc1)c1ccc2c(c1)c(-c1cccc(Cl)c1)cc(=O)n2C [tipifarnib]
# How it was run: as §1
# [18] = compound: FC(F)(F)c1ccc(/C=C/c2nc(COc3ccc(CCCCn4ccnn4)cc3)co2)cc1 [mubritinib]
# How it was run: as §1
# [19] = compound: C[C@H](Nc1ncnc2nc[nH]c12)c1cc2cccc(Cl)c2c(=O)n1-c1ccccc1 [duvelisib]
# How it was run: as §1
# [20] = compound: Cc1cc(Nc2cc(N3CCN(C)CC3)nc(Sc3ccc(NC(=O)C4CC4)cc3)n2)n[nH]1 [tozasertib]
# How it was run: as §1
Target,log2 fold change [1],log2 fold change [2],log2 fold change [3],log2 fold change [4],log2 fold change [5],log2 fold change [6],log2 fold change [7],log2 fold change [8],log2 fold change [9],log2 fold change [10],log2 fold change [11],log2 fold change [12],log2 fold change [13],log2 fold change [14],log2 fold change [15],log2 fold change [16],log2 fold change [17],log2 fold change [18],log2 fold change [19],log2 fold change [20]
RAB33B (UniProt Q9H082),inactive: 0.007,inactive: 0.106,inactive: 0.064,inactive: -0.037,inactive: -0.095,inactive: -0.038,inactive: -0.021,inactive: -0.065,inactive: -0.01,inactive: 0.012,inactive: 0.01,inactive: 0.018,inactive: -0.058,inactive: 0.022,inactive: 0,inactive: 0.151,inactive: 0.024,inactive: -0.01,,
RAC3 (UniProt P60763),inactive: 0.074,inactive: 0.097,inactive: 0.073,inactive: -0.027,inactive: 0,inactive: 0.005,active: 0.262,inactive: -0.013,inactive: 0.015,inactive: -0.221,inactive: 0.03,inactive: 0.036,inactive: -0.169,inactive: -0.016,inactive: 0.107,inactive: 0.064,inactive: 0.03,inactive: -0.008,,
"RAPGEF5, A0A590UJR0",inactive: 0.01,inactive: 0.161,,inactive: 0.345,inactive: -0.344,inactive: -0.037,inactive: -0.091,inactive: 0.058,inactive: 0.069,inactive: -0.06,inactive: -0.051,inactive: -0.002,inactive: -0.515,inactive: -0.001,inactive: -0.27,inactive: 0.108,inactive: -0.28,inactive: 0.05,inactive: 0.222,inactive: -0.154
RBM33 (UniProt Q96EV2),inactive: -0.01,inactive: 0.058,inactive: -0.063,inactive: -0.077,inactive: 0.03,inactive: 0.043,inactive: -0.022,inactive: -0.085,inactive: -0.055,inactive: 0.012,inactive: -0.036,inactive: -0.143,inactive: 0.013,inactive: -0.11,inactive: 0.024,inactive: -0.013,inactive: 0.085,inactive: -0.004,,
RARS (UniProt P54136),inactive: -0.001,inactive: -0.266,inactive: -0.099,inactive: 0.373,inactive: 0.018,inactive: 0.132,inactive: 0.184,active: -0.398,inactive: 0.04,inactive: 0.069,inactive: -0.057,inactive: -0.021,inactive: -0.071,inactive: 0.053,inactive: -0.08,inactive: -0.125,inactive: -0.117,inactive: -0.116,,
RBBP7 (UniProt Q16576),inactive: 0,inactive: 0.039,inactive: -0.016,,,inactive: -0.121,inactive: 0.093,inactive: 0.04,inactive: -0.147,,inactive: -0.005,inactive: 0.015,inactive: 0.042,inactive: -0.012,,inactive: 0.062,inactive: -0.077,inactive: 0.048,inactive: 0.06,
RAB9A (UniProt P51151),inactive: 0.007,inactive: -0.119,inactive: -0.006,inactive: -0.044,inactive: 0,inactive: 0.016,inactive: 0.018,inactive: -0.168,inactive: -0.073,inactive: -0.021,inactive: -0.01,inactive: 0.012,inactive: 0.002,inactive: 0.002,inactive: 0.104,inactive: 0.001,inactive: 0.001,inactive: 0.002,,
RAP1GDS1 isoform 5 (UniProt P52306),inactive: 0.061,inactive: -0.062,inactive: 0.08,inactive: 0.009,inactive: -0.066,inactive: 0.036,inactive: -0.014,inactive: -0.096,inactive: 0.097,inactive: 0.07,inactive: -0.077,inactive: -0.105,inactive: -0.083,inactive: 0.042,inactive: -0.005,inactive: 0.03,inactive: -0.041,inactive: 0.026,,
RAB3IL1 (UniProt Q8TBN0),inactive: 0.009,inactive: 0.086,inactive: 0.071,inactive: 0.031,inactive: 0.012,inactive: -0.009,inactive: -0.021,inactive: 0.04,inactive: -0.025,inactive: 0.034,inactive: -0.016,inactive: 0.012,inactive: -0.054,inactive: -0.015,inactive: -0.007,inactive: 0.002,inactive: -0.051,inactive: 0.017,,
RARS2 (UniProt Q5T160),inactive: -0.026,inactive: -0.016,inactive: 0.091,inactive: -0.021,inactive: -0.075,inactive: 0.019,inactive: -0.017,inactive: -0.033,inactive: -0.148,inactive: 0.104,inactive: -0.039,inactive: 0.019,inactive: -0.023,inactive: -0.006,inactive: 0.061,inactive: 0.012,inactive: -0.008,inactive: 0.075,,
RABGAP1L isoform 3 (UniProt Q5R372),inactive: -0.018,inactive: 0.005,inactive: -0.004,inactive: -0.138,inactive: -0.018,inactive: 0.05,inactive: 0.052,inactive: 0.046,inactive: -0.045,inactive: 0.024,inactive: -0.031,inactive: -0.001,inactive: -0.038,inactive: -0.037,inactive: -0.005,inactive: 0.013,inactive: 0.016,inactive: -0.001,,
"RAD50, A0A494C0Y7",inactive: 0.029,inactive: -0.024,,inactive: 0.204,inactive: 0.021,inactive: 0.054,inactive: 0.034,inactive: -0.054,inactive: -0.022,inactive: -0.249,,,inactive: 0.028,,inactive: -0.012,inactive: 0.016,inactive: 0.058,inactive: 0.167,,
RABAC1 (UniProt Q9UI14),inactive: -0.028,inactive: -0.013,inactive: -0.009,,inactive: -0.001,inactive: 0,inactive: 0.023,inactive: -0.034,inactive: -0.087,inactive: -0.095,inactive: 0.018,inactive: -0.033,inactive: 0.197,inactive: -0.012,,inactive: -0.048,inactive: 0.093,inactive: -0.023,inactive: 0.057,inactive: 0.018
RANBP6 (UniProt O60518),inactive: -0.02,inactive: 0.031,,,,inactive: 0.043,inactive: 0.05,inactive: -0.352,,,,,inactive: 0.211,,,inactive: 0.063,inactive: 0.19,,inactive: 0.259,
RBM12 (UniProt Q9NTZ6),inactive: 0.079,inactive: 0.005,inactive: 0.16,inactive: -0.109,inactive: -0.132,inactive: 0.1,inactive: -0.076,inactive: 0.008,inactive: 0.026,inactive: 0.046,inactive: -0.108,inactive: -0.227,inactive: -0.287,inactive: -0.09,inactive: 0.048,inactive: 0.015,inactive: -0.061,inactive: 0.032,,

# Individual results from the results shown.
# log2 fold change [8], RAB9A (UniProt P51151) is entered as inactive: -0.168
# log2 fold change [15], RARS2 (UniProt Q5T160) is entered as inactive: 0.061
